For the test, the target named is T1, MORC7 (Arabidopsis) (UniProt F4JRS4).
T1 sequence: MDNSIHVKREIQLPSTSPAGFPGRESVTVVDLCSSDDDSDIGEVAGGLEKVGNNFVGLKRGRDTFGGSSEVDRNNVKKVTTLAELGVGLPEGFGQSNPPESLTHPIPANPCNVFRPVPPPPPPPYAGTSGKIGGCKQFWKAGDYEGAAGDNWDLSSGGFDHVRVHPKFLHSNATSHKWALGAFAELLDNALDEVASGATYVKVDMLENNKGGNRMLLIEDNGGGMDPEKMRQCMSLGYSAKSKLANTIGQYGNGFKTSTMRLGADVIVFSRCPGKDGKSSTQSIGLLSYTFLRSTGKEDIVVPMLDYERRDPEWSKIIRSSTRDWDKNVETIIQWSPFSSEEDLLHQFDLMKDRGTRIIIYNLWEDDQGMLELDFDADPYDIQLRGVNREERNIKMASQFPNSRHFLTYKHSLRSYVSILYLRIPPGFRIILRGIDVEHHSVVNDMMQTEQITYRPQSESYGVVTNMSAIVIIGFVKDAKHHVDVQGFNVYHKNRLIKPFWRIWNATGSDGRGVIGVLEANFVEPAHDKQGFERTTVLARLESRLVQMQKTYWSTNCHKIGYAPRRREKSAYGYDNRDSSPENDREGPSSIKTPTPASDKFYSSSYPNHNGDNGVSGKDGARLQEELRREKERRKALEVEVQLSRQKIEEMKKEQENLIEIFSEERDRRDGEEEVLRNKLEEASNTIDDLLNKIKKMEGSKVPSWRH
The test can be described thus: affinity purification with mass spectrometry.

Results are given in words; binding and its absence hold for the method and conditions named. Binding seen in cells or lysates may run through a third protein. These calls come from enrichment with a bait or labelling near it, and not all partners need be listed.

B1: TOPLESS (TPL) (protein, UniProt Q94AI7 1-1131)
chain: MSSLSRELVFLILQFLDEEKFKETVHKLEQESGFFFNMKYFEDEVHNGNWDEVEKYLSGFTKVDDNRYSMKIFFEIRKQKYLEALDKHDRPKAVDILVKDLKVFSTFNEELFKEITQLLTLENFRENEQLSKYGDTKSARAIMLVELKKLIEANPLFRDKLQFPTLRNSRLRTLINQSLNWQHQLCKNPRPNPDIKTLFVDHSCGPPNGARAPSPVNNPLLGGIPKAGGFPPLGAHGPFQPTASPVPTPLAGWMSSPSSVPHPAVSAGAIALGGPSIPAALKHPRTPPTNASLDYPSADSEHVSKRTRPMGISDEVNLGVNMLPMSFSGQAHGHSPAFKAPDDLPKTVARTLSQGSSPMSMDFHPIKQTLLLVGTNVGDIGLWEVGSRERLVQKTFKVWDLSKCSMPLQAALVKEPVVSVNRVIWSPDGSLFGVAYSRHIVQLYSYHGGEDMRQHLEIDAHVGGVNDISFSTPNKQLCVITCGDDKTIKVWDAATGVKRHTFEGHEAPVYSVCPHYKENIQFIFSTALDGKIKAWLYDNMGSRVDYDAPGRWCTTMAYSADGTRLFSCGTSKDGESFIVEWNESEGAVKRTYQGFHKRSLGVVQFDTTKNRYLAAGDDFSIKFWDMDAVQLLTAIDGDGGLQASPRIRFNKEGSLLAVSGNENVIKIMANSDGLRLLHTFENISSESSKPAINSIAAAAAAAATSAGHADRSANVVSIQGMNGDSRNMVDVKPVITEESNDKSKIWKLTEVSEPSQCRSLRLPENLRVAKISRLIFTNSGNAILALASNAIHLLWKWQRNERNATGKATASLPPQQWQPASGILMTNDVAETNPEEAVPCFALSKNDSYVMSASGGKISLFNMMTFKTMATFMPPPPAATFLAFHPQDNNIIAIGMDDSTIQIYNVRVDEVKSKLKGHSKRITGLAFSNVLNVLVSSGADAQLCVWNTDGWEKQRSKVLPLPQGRPNSAPSDTRVQFHQDQAHFLVVHETQLAIYETTKLECMKQWAVRESLAPITHATFSCDSQLVYASFMDATVCVFSSANLRLRCRVNPSAYLPASLSNSNVHPLVIAAHPQEPNMFAVGLSDGGVHIFEPLESEGKWGVAPPAENGSASGAPTAPSVGASASDQPQR
Turning to B1, the binding entry was “binds”.

B2: LEUNIG (LUG) (protein, UniProt Q9FUY2 1-931)
chain: MSQTNWEADKMLDVYIHDYLVKRDLKATAQAFQAEGKVSSDPVAIDAPGGFLFEWWSVFWDIFIARTNEKHSEVAASYIETQMIKAREQQLQQSQHPQVSQQQQQQQQQQIQMQQLLLQRAQQQQQQQQQQHHHHQQQQQQQQQQQQQQQQQQQQHQNQPPSQQQQQQSTPQHQQQPTPQQQPQRRDGSHLANGSANGLVGNNSEPVMRQNPGSGSSLASKAYEERVKMPTQRESLDEAAMKRFGDNVGQLLDPSHASILKSAAASGQPAGQVLHSTSGGMSPQVQTRNQQLPGSAVDIKSEINPVLTPRTAVPEGSLIGIPGSNQGSNNLTLKGWPLTGFDQLRSGLLQQQKPFMQSQSFHQLNMLTPQHQQQLMLAQQNLNSQSVSEENRRLKMLLNNRSMTLGKDGLGSSVGDVLPNVGSSLQPGGSLLPRGDTDMLLKLKMALLQQQQQNQQQGGGNPPQPQPQPQPLNQLALTNPQPQSSNHSIHQQEKLGGGGSITMDGSISNSFRGNEQVLKNQSGRKRKQPVSSSGPANSSGTANTAGPSPSSAPSTPSTHTPGDVISMPNLPHSGGSSKSMMMFGTEGTGTLTSPSNQLADMDRFVEDGSLDDNVESFLSQEDGDQRDAVTRCMDVSKGFTFTEVNSVRASTTKVTCCHFSSDGKMLASAGHDKKAVLWYTDTMKPKTTLEEHTAMITDIRFSPSQLRLATSSFDKTVRVWDADNKGYSLRTFMGHSSMVTSLDFHPIKDDLICSCDNDNEIRYWSINNGSCTRVYKGGSTQIRFQPRVGKYLAASSANLVNVLDVETQAIRHSLQGHANPINSVCWDPSGDFLASVSEDMVKVWTLGTGSEGECVHELSCNGNKFQSCVFHPAYPSLLVIGCYQSLELWNMSENKTMTLPAHEGLITSLAVSTATGLVASASHDKLVKLWK
B2: the binding result is reported as “binds”.

These data come from article doi:10.1101/2022.11.01.514783.
